Source: PMC10079682
Results are given in words; binding and its absence hold for the method and conditions named. For some assays here: Binding seen in cells or lysates may run through a third protein. Some binding calls cover weakened binding; strength is not graded here. For some assays here: Where a sequence is shown, tags or fusion partners need not be part of it.

By UniProt entry, the sequences of proteins in these tests, tags left out. Residues count along the entry.
UniProt Q9NZQ7, residues 19-290: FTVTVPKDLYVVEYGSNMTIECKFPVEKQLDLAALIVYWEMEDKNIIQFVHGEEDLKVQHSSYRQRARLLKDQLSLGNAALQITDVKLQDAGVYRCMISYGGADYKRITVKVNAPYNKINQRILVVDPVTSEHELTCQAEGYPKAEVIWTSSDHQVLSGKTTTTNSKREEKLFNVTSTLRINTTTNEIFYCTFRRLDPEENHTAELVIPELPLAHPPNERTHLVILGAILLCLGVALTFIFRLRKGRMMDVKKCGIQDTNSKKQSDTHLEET
UniProt Q9Y4B6: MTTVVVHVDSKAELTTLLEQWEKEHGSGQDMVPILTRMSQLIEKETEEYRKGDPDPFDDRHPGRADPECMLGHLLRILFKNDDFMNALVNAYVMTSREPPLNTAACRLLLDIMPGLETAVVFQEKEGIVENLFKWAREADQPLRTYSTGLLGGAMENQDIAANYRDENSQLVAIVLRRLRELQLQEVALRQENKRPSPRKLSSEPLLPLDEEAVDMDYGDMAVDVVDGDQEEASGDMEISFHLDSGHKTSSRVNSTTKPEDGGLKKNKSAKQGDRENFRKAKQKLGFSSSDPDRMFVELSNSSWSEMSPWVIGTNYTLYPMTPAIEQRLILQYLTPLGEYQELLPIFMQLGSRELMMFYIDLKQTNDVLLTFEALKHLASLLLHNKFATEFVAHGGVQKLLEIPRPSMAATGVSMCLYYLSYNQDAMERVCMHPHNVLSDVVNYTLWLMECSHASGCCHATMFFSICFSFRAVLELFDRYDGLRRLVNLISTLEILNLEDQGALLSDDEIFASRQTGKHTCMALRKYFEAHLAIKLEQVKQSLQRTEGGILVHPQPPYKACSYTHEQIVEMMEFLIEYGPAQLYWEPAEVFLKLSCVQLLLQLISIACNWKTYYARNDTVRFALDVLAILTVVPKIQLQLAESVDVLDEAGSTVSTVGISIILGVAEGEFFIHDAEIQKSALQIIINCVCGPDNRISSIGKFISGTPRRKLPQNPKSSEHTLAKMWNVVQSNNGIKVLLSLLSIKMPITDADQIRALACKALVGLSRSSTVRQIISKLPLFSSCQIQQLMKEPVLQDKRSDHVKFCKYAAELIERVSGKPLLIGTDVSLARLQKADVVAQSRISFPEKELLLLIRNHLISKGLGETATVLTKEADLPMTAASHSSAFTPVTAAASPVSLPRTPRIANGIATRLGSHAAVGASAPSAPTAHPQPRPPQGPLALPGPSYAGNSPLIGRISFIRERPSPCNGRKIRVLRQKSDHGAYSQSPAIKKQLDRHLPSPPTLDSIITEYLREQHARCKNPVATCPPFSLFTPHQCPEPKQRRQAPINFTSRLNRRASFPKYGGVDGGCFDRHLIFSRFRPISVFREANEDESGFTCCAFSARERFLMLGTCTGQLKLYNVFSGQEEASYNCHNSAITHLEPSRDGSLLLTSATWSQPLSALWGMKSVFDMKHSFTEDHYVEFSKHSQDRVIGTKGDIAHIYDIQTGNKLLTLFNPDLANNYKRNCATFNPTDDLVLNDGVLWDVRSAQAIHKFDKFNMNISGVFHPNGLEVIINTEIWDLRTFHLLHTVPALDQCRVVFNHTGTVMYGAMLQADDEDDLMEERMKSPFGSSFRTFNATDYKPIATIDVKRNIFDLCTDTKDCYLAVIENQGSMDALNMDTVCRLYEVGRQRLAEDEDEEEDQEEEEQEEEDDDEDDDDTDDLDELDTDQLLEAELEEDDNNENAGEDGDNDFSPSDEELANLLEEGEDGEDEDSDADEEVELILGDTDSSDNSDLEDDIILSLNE

Columns and labels:
[1] = target: T1, endogenous IRF1 (human (endogenous in H1299, A549, HEK293)) (UniProt P10914); test: co-IP; endogenous proteins from H1299 cells; IP with a specific antibody or control IgG; western blot
T1 sequence: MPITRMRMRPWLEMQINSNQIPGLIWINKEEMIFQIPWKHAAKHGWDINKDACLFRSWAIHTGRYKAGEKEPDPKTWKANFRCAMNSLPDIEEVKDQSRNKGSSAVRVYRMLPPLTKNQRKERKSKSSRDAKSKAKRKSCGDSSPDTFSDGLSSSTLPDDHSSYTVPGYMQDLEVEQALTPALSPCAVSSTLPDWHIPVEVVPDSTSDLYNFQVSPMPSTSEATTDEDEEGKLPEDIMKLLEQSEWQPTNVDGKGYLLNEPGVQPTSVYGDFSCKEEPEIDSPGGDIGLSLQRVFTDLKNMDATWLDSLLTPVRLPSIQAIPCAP

[2] = target: endogenous PD-L1 (human (endogenous in H1299, MDA-MB-231)) (UniProt Q9NZQ7); test: as above
SFB-tagged-USP2 protein = target: T2, SFB-tagged-USP2 protein (UniProt O75604); test: co-IP; protein complexes of SFB-tagged USP2 purified from 293 cells; western blot (Supplementary Fig. 8d)
T2 sequence: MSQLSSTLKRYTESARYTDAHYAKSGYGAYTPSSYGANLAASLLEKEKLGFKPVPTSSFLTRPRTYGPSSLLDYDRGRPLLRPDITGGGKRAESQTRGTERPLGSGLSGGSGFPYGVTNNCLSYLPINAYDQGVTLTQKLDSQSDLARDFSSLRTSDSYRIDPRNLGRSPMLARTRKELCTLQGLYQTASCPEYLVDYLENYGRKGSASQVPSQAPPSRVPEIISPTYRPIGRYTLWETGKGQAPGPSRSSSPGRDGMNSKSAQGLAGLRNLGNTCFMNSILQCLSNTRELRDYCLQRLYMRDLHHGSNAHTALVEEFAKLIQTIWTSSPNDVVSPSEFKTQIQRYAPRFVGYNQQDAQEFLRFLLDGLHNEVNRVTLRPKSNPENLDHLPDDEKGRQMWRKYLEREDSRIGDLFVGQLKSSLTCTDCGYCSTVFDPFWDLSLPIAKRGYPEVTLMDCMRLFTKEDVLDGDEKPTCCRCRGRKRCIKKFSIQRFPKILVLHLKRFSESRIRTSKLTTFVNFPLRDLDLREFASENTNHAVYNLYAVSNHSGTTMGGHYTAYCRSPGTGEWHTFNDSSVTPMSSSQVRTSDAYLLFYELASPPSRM

[3] = target: T3, endogenous USP2 (human (endogenous in A375)) (UniProt O75604); test: co-IP; endogenous proteins, A375 cell extracts; IP of endogenous USP2 or control IgG; western blot for VPRBP
T3 sequence: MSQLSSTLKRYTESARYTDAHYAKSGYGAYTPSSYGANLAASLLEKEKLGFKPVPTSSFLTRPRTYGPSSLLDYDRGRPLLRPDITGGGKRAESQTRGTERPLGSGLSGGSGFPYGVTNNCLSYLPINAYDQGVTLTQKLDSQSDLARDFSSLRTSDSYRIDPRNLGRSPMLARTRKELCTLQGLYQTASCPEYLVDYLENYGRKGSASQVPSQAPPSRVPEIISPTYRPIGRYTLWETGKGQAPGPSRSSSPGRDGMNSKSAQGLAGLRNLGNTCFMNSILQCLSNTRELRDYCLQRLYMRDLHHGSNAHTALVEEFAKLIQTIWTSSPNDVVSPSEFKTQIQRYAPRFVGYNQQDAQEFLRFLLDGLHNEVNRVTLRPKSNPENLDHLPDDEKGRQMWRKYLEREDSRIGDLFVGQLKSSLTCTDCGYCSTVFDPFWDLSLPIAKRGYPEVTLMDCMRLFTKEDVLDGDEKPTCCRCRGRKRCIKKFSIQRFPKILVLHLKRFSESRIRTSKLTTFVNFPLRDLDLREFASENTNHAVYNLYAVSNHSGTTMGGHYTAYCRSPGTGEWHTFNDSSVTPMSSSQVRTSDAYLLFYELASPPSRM

[4] = target: T4, GST-fusion protein containing full-length IRF1 (UniProt P10914); test: pull-down; GST or GST-fused protein (E. coli) and purified F-VPRBP protein incubated with GST resin overnight at 4 °C; 5 washes with BC100 buffer; western blot; both purified
T4 sequence: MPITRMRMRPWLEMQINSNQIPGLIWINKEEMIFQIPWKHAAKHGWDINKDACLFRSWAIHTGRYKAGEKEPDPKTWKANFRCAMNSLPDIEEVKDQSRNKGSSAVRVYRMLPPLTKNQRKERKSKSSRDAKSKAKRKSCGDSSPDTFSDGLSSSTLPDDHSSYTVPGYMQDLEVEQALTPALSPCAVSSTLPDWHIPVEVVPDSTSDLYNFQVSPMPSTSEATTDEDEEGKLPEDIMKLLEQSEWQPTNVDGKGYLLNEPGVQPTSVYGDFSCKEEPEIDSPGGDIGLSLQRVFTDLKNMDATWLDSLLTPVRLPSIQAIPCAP

[5] = target: T5, purified GST-USP2 fusion protein (UniProt O75604); test: as above
T5 sequence: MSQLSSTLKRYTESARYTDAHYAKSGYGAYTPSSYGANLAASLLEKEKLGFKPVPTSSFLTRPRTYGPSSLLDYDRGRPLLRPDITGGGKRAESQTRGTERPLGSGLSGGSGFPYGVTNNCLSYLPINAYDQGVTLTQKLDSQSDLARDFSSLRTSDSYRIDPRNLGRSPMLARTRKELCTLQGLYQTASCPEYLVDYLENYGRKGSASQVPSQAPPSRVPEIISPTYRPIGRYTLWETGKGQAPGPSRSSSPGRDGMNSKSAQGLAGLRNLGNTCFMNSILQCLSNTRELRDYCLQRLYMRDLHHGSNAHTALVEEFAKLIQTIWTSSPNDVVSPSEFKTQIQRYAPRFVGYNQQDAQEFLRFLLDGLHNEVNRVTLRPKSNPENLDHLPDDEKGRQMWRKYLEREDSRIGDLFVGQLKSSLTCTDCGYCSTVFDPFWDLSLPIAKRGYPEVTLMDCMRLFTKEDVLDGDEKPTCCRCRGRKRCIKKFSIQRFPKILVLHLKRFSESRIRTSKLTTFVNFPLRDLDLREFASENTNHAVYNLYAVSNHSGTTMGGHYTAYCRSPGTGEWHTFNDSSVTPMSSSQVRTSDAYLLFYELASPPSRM

[6] = target: C-terminal tagged PD-L1 (PD-L1-SFB) (human) (UniProt Q9NZQ7); test: co-IP; H1299 cells transfected with both constructs; whole cell extracts in BC100 buffer; SFB-tagged bait on streptavidin beads overnight at 4 °C; western blot
[7] = target: endogenous VPRBP (human (endogenous in H1299, A549, HEK293, MDA-MB-231, A375)) (UniProt Q9Y4B6); test: co-IP; endogenous proteins, MDA-MB-231 cells (Fig. 3d, lower panel, by the legend); IP with a specific antibody or control IgG; western blot
FLAG-HA-tagged USP2 = target: T6, FLAG-HA-tagged USP2 (UniProt O75604); test: co-IP; H1299 cells transfected with Myc-VPRBP alone or with FH-USP2; IP of FH-USP2 with HA beads; western blot
T6 sequence: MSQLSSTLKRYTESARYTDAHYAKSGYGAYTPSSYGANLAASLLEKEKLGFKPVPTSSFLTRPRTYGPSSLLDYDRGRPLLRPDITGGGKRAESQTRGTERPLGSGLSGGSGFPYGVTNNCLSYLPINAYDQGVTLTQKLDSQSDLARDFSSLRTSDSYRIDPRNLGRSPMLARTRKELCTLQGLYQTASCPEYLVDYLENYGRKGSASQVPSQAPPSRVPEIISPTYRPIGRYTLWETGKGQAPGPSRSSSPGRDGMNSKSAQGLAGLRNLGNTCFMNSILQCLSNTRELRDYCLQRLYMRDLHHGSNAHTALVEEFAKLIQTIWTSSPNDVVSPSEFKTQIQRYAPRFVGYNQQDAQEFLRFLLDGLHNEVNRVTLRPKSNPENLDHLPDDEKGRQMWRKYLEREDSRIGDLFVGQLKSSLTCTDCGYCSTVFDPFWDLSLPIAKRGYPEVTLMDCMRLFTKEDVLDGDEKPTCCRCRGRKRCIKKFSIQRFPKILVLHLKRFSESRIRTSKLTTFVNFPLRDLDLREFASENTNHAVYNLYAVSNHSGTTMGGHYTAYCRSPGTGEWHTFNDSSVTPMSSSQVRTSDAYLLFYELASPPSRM

SFB-tagged IRF1 = target: T7, SFB-tagged IRF1 (UniProt P10914); test: co-IP; H1299 cells transfected with both constructs; whole cell extracts in BC100 buffer; SFB-tagged bait on streptavidin beads overnight at 4 °C; western blot
T7 sequence: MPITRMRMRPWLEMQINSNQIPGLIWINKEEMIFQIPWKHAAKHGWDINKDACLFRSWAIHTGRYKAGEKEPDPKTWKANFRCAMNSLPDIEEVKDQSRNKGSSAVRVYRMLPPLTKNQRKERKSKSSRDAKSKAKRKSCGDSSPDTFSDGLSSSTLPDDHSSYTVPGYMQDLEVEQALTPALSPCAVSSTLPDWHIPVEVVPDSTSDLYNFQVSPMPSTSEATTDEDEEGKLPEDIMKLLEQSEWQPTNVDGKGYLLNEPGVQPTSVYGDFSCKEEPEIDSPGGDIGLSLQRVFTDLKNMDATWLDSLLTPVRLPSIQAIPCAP

SFB-tagged VPRBP (human) = SFB-tagged VPRBP (human) (UniProt Q9Y4B6); test: as above
[8] = target: endogenous VPRBP (human (endogenous in H1299, A549, HEK293, MDA-MB-231, A375)) (UniProt Q9Y4B6); test: co-IP; endogenous proteins, A549 cells (Supplementary Fig. 4b, c)
[9] = target: endogenous VPRBP (human (endogenous in H1299, A549, HEK293, MDA-MB-231, A375)) (UniProt Q9Y4B6); test: co-IP; endogenous proteins, HEK293 cells (Supplementary Fig. 4b, c)
[10] = target: endogenous VPRBP (human (endogenous in H1299, A549, HEK293, MDA-MB-231, A375)) (UniProt Q9Y4B6); test: co-IP; endogenous proteins from H1299 cells; IP with a specific antibody or control IgG; western blot

**Q.** Which binding [1] does the source give for “endogenous VPRBP (from UniProt Q9Y4B6 1-1507)” here?
**A.** binds

**Q.** What about the binding [2] of the same molecule?
**A.** binds

**Q.** What about the binding (SFB-tagged-USP2 protein) of the same molecule?
**A.** binds

**Q.** What about the binding [3] of the same molecule?
**A.** binds

**Q.** How did the binding [4] turn out when “purified Flag-VPRBP (from UniProt Q9Y4B6 1-1507)” was run?
**A.** binds

**Q.** What about the binding [5] of the same molecule?
**A.** binds

**Q.** With “Flag-tagged VPRBP (from UniProt Q9Y4B6 1-1507)” as the molecule, how does the binding [6] read?
**A.** binds

**Q.** For “endogenous PD-L1 (from UniProt Q9NZQ7 19-290)”, which binding [7] is on record?
**A.** binds

**Q.** What does the source list for “Myc-tagged VPRBP (from UniProt Q9Y4B6 1-1507)”?
**A.** binding (FLAG-HA-tagged USP2): binds; binding (SFB-tagged IRF1): binds

B1: Flag-tagged IRF1 (protein, UniProt P10914 1-325)
chain: MPITRMRMRPWLEMQINSNQIPGLIWINKEEMIFQIPWKHAAKHGWDINKDACLFRSWAIHTGRYKAGEKEPDPKTWKANFRCAMNSLPDIEEVKDQSRNKGSSAVRVYRMLPPLTKNQRKERKSKSSRDAKSKAKRKSCGDSSPDTFSDGLSSSTLPDDHSSYTVPGYMQDLEVEQALTPALSPCAVSSTLPDWHIPVEVVPDSTSDLYNFQVSPMPSTSEATTDEDEEGKLPEDIMKLLEQSEWQPTNVDGKGYLLNEPGVQPTSVYGDFSCKEEPEIDSPGGDIGLSLQRVFTDLKNMDATWLDSLLTPVRLPSIQAIPCAP
**Q.** For B1, which binding (SFB-tagged VPRBP (human)) is on record?
**A.** binds

B2: endogenous IRF1 (protein, UniProt P10914 1-325)
chain: MPITRMRMRPWLEMQINSNQIPGLIWINKEEMIFQIPWKHAAKHGWDINKDACLFRSWAIHTGRYKAGEKEPDPKTWKANFRCAMNSLPDIEEVKDQSRNKGSSAVRVYRMLPPLTKNQRKERKSKSSRDAKSKAKRKSCGDSSPDTFSDGLSSSTLPDDHSSYTVPGYMQDLEVEQALTPALSPCAVSSTLPDWHIPVEVVPDSTSDLYNFQVSPMPSTSEATTDEDEEGKLPEDIMKLLEQSEWQPTNVDGKGYLLNEPGVQPTSVYGDFSCKEEPEIDSPGGDIGLSLQRVFTDLKNMDATWLDSLLTPVRLPSIQAIPCAP
**Q.** How did the binding [8] turn out when B2 was run?
**A.** binds

**Q.** What about the binding [9] of the same molecule?
**A.** binds

**Q.** And the binding [10]?
**A.** binds
